Data reported in patent publication US20040176422A1, “Heteroarylheteroalkylamine derivatives and their use as inhibitors of nitric oxide synthase” (priority 2001, published 2004).
pIC50: −log10 of the molar value. Some entries share one result that the patent states for a list of compounds.

How the values were obtained:
[1] = biological target: T1, nitric oxide synthase (induced, from murine macrophage cell line J774A-1) (Mus musculus, UniProt P29477); assay: Screen 1: nitric oxide synthase inhibition, 3H-L-arginine to 3H-L-citrulline conversion, lysate of induced J774A-1 cells; format: biochemical; settings: J774A-1 cell lysate after LPS/IFNg induction; 1 hour at room temperature; read-out: IC50 (concentration of drug substance which gives 50% enzyme inhibition in the assay)
T1 construct: The reaction is started by adding 50 μl of cell lysate (prepared as above); endogenous in cells; host or cells: J774A-1 murine macrophage cell line, induced with LPS and IFNg; crude cell lysate

[2] = biological target: T2, human form of induced nitric oxide synthase in DLD-1 cells (Homo sapiens, UniProt P35228); assay: Screen 3: nitrite accumulation (Griess) in cytokine-induced DLD-1 cells; format: cell-based; settings: DLD-1 cells induced with gamma-IFN, TNF-alpha, IL-6, IL-1-beta; 5 hours with compound; read-out: IC50 (inhibition of nitrite accumulation)
T2 construct: Nitric oxide synthase was induced in cells by addition of medium containing human recombinant gamma-IFN; endogenous in cells; host or cells: DLD-1 human colorectal carcinoma cells (ECACC 90102540), induced with gamma-IFN, TNF-alpha, IL-6 and IL-1-beta

[3] = biological target: T3, recombinant human iNOS (Homo sapiens, UniProt P35228); assay: Screen 2: recombinant human NO synthase inhibition, L-[3H]citrulline formation; format: biochemical; settings: recombinant human iNOS expressed in E. coli; 60 min pre-incubation with NADPH; 3 μM [3H]arginine; read-out: IC50 against the iNOS enzyme
T3 construct: made in house; host or cells: E. coli (lysate in Hepes buffer with co-factors, lysozyme and CHAPS)

Structure (SMILES) | pIC50 [1] | pIC50 [2] | pIC50 [3]
COc1cc(S[C@H](CCNCCO)c2ccno2)c(C#N)cn1 [Example 17, 4-[[(1R)-3-[(2-Hydroxyethyl)amino]-1-(5-isoxazolyl)propyl]thio]-6-methoxy-3-pyridinecarbonitrile (E)-butenedioate] | > 5.00 | > 4.00 | > 5.00
N#Cc1ccc(C(F)(F)F)nc1O[C@H](CCN)c1ccsc1 [Example 7, 2-[[(1R)-3-Amino-1-(3-thienyl)propyl]oxy]-6-(trifluoromethyl)-3-pyridinecarbonitrile Ethanedioate] | > 5.00 | > 4.00 | > 5.00
Cc1ccc(C#N)c(SC(CCCN)c2ccno2)n1 (stereo not drawn) [Example 43, 2-[[4-Amino-1-(5-isoxazolyl)butyl]thio]-6-methyl-3-pyridinecarbonitrile (E)-butenedioate] | > 5.00 | > 4.00 | > 5.00
Cc1nocc1C(CCN)Oc1nc(C(F)(F)F)ccc1C#N (stereo not drawn) [Example 20, 2-[3-Amino-1-(3-methyl-4-isoxazolyl)propoxy]-6-(trifluoromethyl)-3-pyridinecarbonitrile (E)-butenedioate] | > 5.00 | > 4.00 | > 5.00
CNCCC(Oc1ncccc1C#N)c1cccc(F)c1 (stereo not drawn) [Example 30, 2-[[1-(3-Fluorophenyl)-3-(methylamino)propyl]oxy]pyridine-3-carbonitrile Ethanedioate] | > 5.00 | > 4.00 | > 5.00
Cc1ccc(C#N)c(SC(CCN)c2ccns2)n1.O=C(O)C(=O)O (stereo not drawn) [Example 21, 2-[[3-Amino-1-(5-isothiazolyl)propyl]thio]-6-methyl-3-pyridinecarbonitrile Ethanedioate] | > 5.00 | > 4.00 | > 5.00
N#Cc1ccc(C(F)F)nc1S[C@H](CCN)c1ccccc1 [Example 4, 2-[[(1R)-3-Amino-1-phenylproyl]thio]-6-(difluoromethyl)-3-pyridinecarbonitrile Ethanedioate] | > 5.00 | > 4.00 | > 5.00
COc1cc(S[C@H](CCN)c2ccno2)c(Cl)cn1 [Example 15, γ-[(5-Chloro-2-methoxy-4-pyridinyl)thio]-(γ^5R)-5-isoxazolepropanamine (E)-butenedioate] | > 5.00 | > 4.00 | > 5.00
N#Cc1ccc(C(F)(F)F)nc1OC(CCN)c1ncco1 (stereo not drawn) [Example 27, 2-[3-Amino-1-(2-oxazolyl)propoxy]-6-(trifluoromethyl)-3-pyridinecarbonitrile Ethanedioate] | > 5.00 | > 4.00 | > 5.00
N#Cc1ccc(C(F)(F)F)nc1O[C@H](CCN)c1ccon1.O=C(O)/C=C/C(=O)O [Example 11, 2-[[(1R)-3-Amino-1-(3-isoxazolyl)propyl]oxy]-6-(trifluoromethyl)-3-pyridinecarbonitrile (E)-butenedioate] | > 5.00 | > 4.00 | > 5.00
Cc1ccc(C#N)c(S[C@H](CCN)c2ccccc2)n1 [Example 2, 2-[[(1R)-3-Amino-1-phenylpropyl]thio]--6-methyl-3-pyridinecarbonitrile (E)-butenedioate] | > 5.00 | > 4.00 | > 5.00
CC(C)(C)NCC[C@@H](Oc1nc(C(F)(F)F)ccc1C#N)c1ccccc1 [Example 40, 2-[[(1R)-3-[(1,1-Dimethylethyl)amino]-1-phenylpropyl]oxy]-6-(trifluoromethyl)-3-pyridinecarbonitrile] | > 5.00 | > 4.00 | > 5.00
N#Cc1ccc(C(F)(F)F)nc1O[C@H](CCN)c1cc(Cl)no1.O=C(O)/C=C/C(=O)O [Example 18, 2-[[(1R)-3-Amino-1-(3-chloro-5-isoxazolyl)propyl]oxy]-6-(trifluoromethyl)-3-pyridinecarbonitrile (E)-butenedioate] | > 5.00 | > 4.00 | > 5.00
Cc1ccc(C#N)c(OC(CCN)c2ccsn2)n1 (stereo not drawn) [Example 23, 2-[3-Amino-1-(3-isothiazolyl)propoxy]-6-methyl-3-pyridinecarbonitrile Ethanedioate] | > 5.00 | > 4.00 | > 5.00
